Results are given in words; binding and its absence hold for the method and conditions named. In cells and extracts the contact can be indirect. Binding can be weak; no strength is given. Tags and fused reporters may be left off the sequences shown.
Target: TBD domain of YAP, GFP-fused truncation
Assay: co-IP; co-IP of GFP-fused YAP truncations and Myc-tagged USP15 mutants from transfected cells (anti-GFP, anti-myc-tag), western blotting; procedure referred to a previous study

binding: binds
B1: Myc-tagged USP15 (enzyme, UniProt Q9Y4E8-2 1-952)
chain: MAEGGAADLDTQRSDIATLLKTSLRKGDTWYLVDSRWFKQWKKYVGFDSWDKYQMGDQNVYPGPIDNSGLLKDGDAQSLKEHLIDELDYILLPTEGWNKLVSWYTLMEGQEPIARKVVEQGMFVKHCKVEVYLTELKLCENGNMNNVVTRRFSKADTIDTIEKEIRKIFSIPDEKETRLWNKYMSNTFEPLNKPDSTIQDAGLYQGQVLVIEQKNEDGTWPRGPSTPNVKNSNYCLPSYTAYKNYDYSEPGRNNEQPGLCGLSNLGNTCFMNSAIQCLSNTPPLTEYFLNDKYQEELNFDNPLGMRGEIAKSYAELIKQMWSGKFSYVTPRAFKTQVGRFAPQFSGYQQQDCQELLAFLLDGLHEDLNRIRKKPYIQLKDADGRPDKVVAEEAWENHLKRNDSIIVDIFHGLFKSTLVCPECAKISVTFDPFCYLTLPLPMKKERTLEVYLVRMDPLTKPMQYKVVVPKIGNILDLCTALSALSGIPADKMIVTDIYNHRFHRIFAMDENLSSIMERDDIYVFEININRTEDTEHVIIPVCLREKFRHSSYTHHTGSSLFGQPFLMAVPRNNTEDKLYNLLLLRMCRYVKISTETEETEGSLHCCKDQNINGNGPNGIHEEGSPSEMETDEPDDESSQDQELPSENENSQSEDSVGGDNDSENGLCTEDTCKGQLTGHKKRLFTFQFNNLGNTDINYIKDDTRHIRFDDRQLRLDERSFLALDWDPDLKKRYFDENAAEDFEKHESVEYKPPKKPFVKLKDCIELFTTKEKLGAEDPWYCPNCKEHQQATKKLDLWSLPPVLVVHLKRFSYSRYMRDKLDTLVDFPINDLDMSEFLINPNAGPCRYNLIAVSNHYGGMGGGHYTAFAKNKDDGKWYYFDDSSVSTASEDQIVSKAAYVLFYQRQDTFSGTGFFPLDRETKGASAATGIPLESDEDSNDNDNDIENENCMHTN
